Measurements reported in PubChem BioAssay AID1259261 (Sanger Institute, 2017).
Shown is a random part of 794 deposited reagents. 10 of all reagents (1.3%) count as active. 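Calls reflect knock-down alone without drug; synergy scores with BYL719, cetuximab or trametinib do not affect calls.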 A number with no mark means an inactive call. No viability above 1 is reported: the scale is capped. Further read-outs or replicates are left out here. The record does not give: the amount of reagent, the time to read-out.

Screen: 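Kinase knock-downs that kill colorectal cancer cells or boost targeted drugs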 (primary screen)
Cells: HCC2998 human colorectal cancer cells
Knock-down reagent: siRNA pool against human genes
Treatment: anchor drugs BYL719 1 µM, cetuximab 5 µg/ml or trametinib 10 nM, each compared with DMSO vehicle
Measurement: 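Viability as fraction of non-targeting control plus robust z-score without drug; synergy scores compare knock-down plus drug against each alone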
Reading the numbers: viability z-score, knock-down alone: higher = more viable cells than controls; viability fraction, knock-down alone: higher = more viable cells; synergy score with BYL719: higher = stronger combined killing with BYL719; synergy score with trametinib: higher = stronger combined killing with trametinib
Call rule: 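Essential when the siRNA-alone viability robust z-score is below -3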
Calls: active = essential; inactive = no change

| gene | viability z-score, knock-down alone | viability fraction, knock-down alone | synergy score with BYL719 | synergy score with trametinib |
| --- | --- | --- | --- | --- |
| SPEG (striated muscle enriched protein kinase) | -0.605 | 0.773 | -0.151 | -0.0411 |
| CDKN2C (cyclin dependent kinase inhibitor 2C) | 0.344 | 0.892 | -0.0768 | 0.162 |
| LMTK2 (lemur tail kinase 2) | -0.469 | 0.79 | -0.136 | -0.0257 |
| BRD3 (bromodomain containing 3) | 0.519 | 0.914 | 0.00489 | -0.0371 |
| PLK4 (polo like kinase 4) | -0.676 | 0.764 | 0.0418 | 0.113 |
| MAPK12 (mitogen-activated protein kinase 12) | 1.21 | 1 | -0.109 | -0.0162 |

Reformatted: entries from further up
PLK4 (polo like kinase 4)
- viability z-score, knock-down alone: -0.676
- viability fraction, knock-down alone: 0.764
- synergy score with BYL719: 0.0418
- synergy score with trametinib: 0.113

MAPK12 (mitogen-activated protein kinase 12)
- viability z-score, knock-down alone: 1.21
- viability fraction, knock-down alone: 1
- synergy score with BYL719: -0.109
- synergy score with trametinib: -0.0162

More results follow:
| gene | viability z-score, knock-down alone | viability fraction, knock-down alone | synergy score with BYL719 | synergy score with trametinib |
| --- | --- | --- | --- | --- |
| NUP107 (nucleoporin 107) | -3.29 (active) | 0.436 | -0.134 | -0.0267 |
| MARK2 (microtubule affinity regulating kinase 2) | 1.21 | 1 | -0.0907 | 0.0137 |
| MAP4K1 (mitogen-activated protein kinase kinase kinase kinase 1) | -0.442 | 0.793 | 0.0547 | -0.000311 |
| DYRK2 (dual specificity tyrosine phosphorylation regulated kinase 2) | -0.187 | 0.825 | 0.0598 | 0.127 |
| SCYL3 (SCY1 like pseudokinase 3) | 1.21 | 1 | -0.0171 | 0.0407 |
| DGKA (diacylglycerol kinase alpha) | -0.463 | 0.791 | -0.0723 | 0.128 |
| CDK7 (cyclin dependent kinase 7) | 0.702 | 0.937 | -0.0342 | 0.0167 |
| CAMK2A (calcium/calmodulin dependent protein kinase II alpha) | -0.125 | 0.833 | -0.152 | -0.0996 |
| MARK1 (microtubule affinity regulating kinase 1) | -0.317 | 0.809 | 0.0602 | 0.0766 |
| MAGI2 | 1.17 | 0.996 | -0.0602 | 0.0179 |
| MAP3K4 (mitogen-activated protein kinase kinase kinase 4) | -0.566 | 0.778 | -0.096 | -0.11 |
| DBF4 (DBF4-CDC7 kinase regulatory subunit) | 0.839 | 0.954 | -0.124 | -0.0888 |
| IRAK1 (interleukin 1 receptor associated kinase 1) | -0.205 | 0.823 | -0.182 | -0.0832 |
| LTK (leukocyte receptor tyrosine kinase) | -0.735 | 0.757 | -0.06 | -0.00329 |
